Test results reported in PMC10974084, “Combination of Betulinic Acid Fragments and Carbonic Anhydrase Inhibitors—A New Drug Targeting Approach” (Pharmaceutics, 2024).

Columns and labels:
Format in all cases: cell-based
[1] = system: A2780 ovarian cancer cells; experiment: SRB cytotoxicity assay, A2780; conditions: Homo sapiens, 96 h incubation, mean ± SD
Method: (§1) All of the compounds were dissolved in dimethyl sulfoxide (DMSO) to achieve a 20 mM stock solution. Cells were seeded in cell culture flasks 24 h before treatment. The treatment was performed for 24 h.
(§2) The cytotoxicity of the drugs was determined in 2D tumor models using sulforhodamine B (SRB) assays. Treatment started 24 h after seeding the tumor cells in 96-well plates as previously described.

[2] = system: MCF-7 breast cancer cells; experiment: SRB cytotoxicity assay, MCF-7; conditions: Homo sapiens, MCF7, 96 h incubation, mean ± SD
Method: as §1, §2

A375 melanoma cells = experiment: SRB cytotoxicity assay, A375; conditions: Homo sapiens, A-375, 96 h incubation, mean ± SD
Method: as §1, §2

Measured: IC50

CC(=O)Nc1nnc(S(N)(=O)=O)s1 [AZA, acetazolamide, reference compound]
> 100 µM: all assays above
